PubChem BioAssay AID504774, Drosophila RNAi Screening Center, 2011

- Assay: 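Fly genes whose loss alters survival after alkylation damage to DNA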 (primary screen)
- Cell system: Drosophila Kc167 cells
- Knock-down reagent: long dsRNA against Drosophila genes, about 0.25 µg dsRNA per well
- Timing: about 6 days: 3 days knock-down, then 3 days with or without MMS
- Treatment: methyl methanesulphonate 0.004% (w/v) for 3 days after knock-down
- Measurement: 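ATP-dependent luminescence as a measure of live cells in MMS-exposed wells, quantile normalised within each plate, with replicate values also given as a mean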
- Scale: mean viability with MMS and viability with MMS: higher = more surviving cells after MMS
The screen tested about 23,000 reagents; this is a random part of those with a known target gene and a result. 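Values are quantile-normalised luminescence on an arbitrary scale; higher means more cells surviving MMS.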

| Target gene | DRSC id | mean viability with MMS | viability with MMS, replicate 1 | viability with MMS, replicate 2 |
| --- | --- | --- | --- | --- |
| Alas | DRSC04044 | 3.24e6 | 4.18e6 | 3.74e6 |
| CG42360 | DRSC04224 | 3.43e6 | 3.91e6 | 3.84e6 |
| CG32793 | DRSC18145 | 3.71e6 | 4.20e6 | 4.18e6 |
| CG32793 | DRSC18194 | 3.56e6 | 4.02e6 | 4.05e6 |
| ppk30 | DRSC15302 | 3.62e6 | 4.18e6 | 4.01e6 |
| heph | DRSC14082 | 3.48e6 | 4.02e6 | 3.90e6 |
| heph | DRSC14085 | 3.53e6 | 4.01e6 | 4.01e6 |
| heph | DRSC15436 | 3.41e6 | 3.91e6 | 3.83e6 |
| heph | DRSC16783 | 3.83e6 | 4.38e6 | 4.28e6 |
| CG8483 | DRSC16430 | 3.50e6 | 3.97e6 | 3.94e6 |
| Gbs-70E | DRSC11055 | 3.62e6 | 4.09e6 | 4.10e6 |
| Golgin97 | DRSC06895 | 3.46e6 | 3.91e6 | 3.89e6 |
| sinu | DRSC09752 | 2.04e6 | 4.23e6 | 4.13e6 |
| nullo | DRSC18807 | 3.50e6 | 4.15e6 | 3.79e6 |
| Ugt37A3 | DRSC15937 | 3.44e6 | 3.94e6 | 3.89e6 |
| MKP-4 | DRSC19567 | 3.66e6 | 4.23e6 | 4.10e6 |
| CG34334 | DRSC20643 | 3.73e6 | 4.29e6 | 4.06e6 |
| nau | DRSC17011 | 3.71e6 | 4.30e6 | 4.09e6 |
| CG13108 | DRSC02206 | 3.68e6 | 4.36e6 | 3.98e6 |
| CG42266 | DRSC21577 | 3.47e6 | 4.00e6 | 3.92e6 |
| CG42266 | DRSC21957 | 3.49e6 | 3.97e6 | 3.95e6 |
| Rpn11 | DRSC03422 | 2.85e6 | 3.30e6 | 3.23e6 |
| CG12402 | DRSC14508 | 3.48e6 | 4.07e6 | 3.81e6 |
| CG5412 | DRSC15796 | 3.54e6 | 3.97e6 | 4.06e6 |
| srw | DRSC08201 | 3.45e6 | 3.92e6 | 3.93e6 |
| CG9812 | DRSC04566 | 3.59e6 | 3.98e6 | 4.17e6 |
| Dhrs4 | DRSC09773 | 3.60e6 | 4.11e6 | 4.05e6 |
| Rdl | DRSC11264 | 3.54e6 | 3.96e6 | 4.08e6 |
| arg | DRSC18737 | 3.56e6 | 3.92e6 | 4.16e6 |
| Naam | DRSC16252 | 3.65e6 | 3.95e6 | 4.33e6 |
| dib | DRSC08711 | 3.58e6 | 4.02e6 | 4.10e6 |

Reformatted: 7 of the entries above
Gbs-70E [DRSC11055]
- mean viability with MMS: 3.62e6
- viability with MMS, replicate 1: 4.09e6
- viability with MMS, replicate 2: 4.10e6

Golgin97 [DRSC06895]
- mean viability with MMS: 3.46e6
- viability with MMS, replicate 1: 3.91e6
- viability with MMS, replicate 2: 3.89e6

sinu [DRSC09752]
- mean viability with MMS: 2.04e6
- viability with MMS, replicate 1: 4.23e6
- viability with MMS, replicate 2: 4.13e6

nullo [DRSC18807]
- mean viability with MMS: 3.50e6
- viability with MMS, replicate 1: 4.15e6
- viability with MMS, replicate 2: 3.79e6

Ugt37A3 [DRSC15937]
- mean viability with MMS: 3.44e6
- viability with MMS, replicate 1: 3.94e6
- viability with MMS, replicate 2: 3.89e6

MKP-4 [DRSC19567]
- mean viability with MMS: 3.66e6
- viability with MMS, replicate 1: 4.23e6
- viability with MMS, replicate 2: 4.10e6

CG34334 [DRSC20643]
- mean viability with MMS: 3.73e6
- viability with MMS, replicate 1: 4.29e6
- viability with MMS, replicate 2: 4.06e6

More entries follow:
| Target gene | DRSC id | mean viability with MMS | viability with MMS, replicate 1 | viability with MMS, replicate 2 |
| --- | --- | --- | --- | --- |
| CG12017 | DRSC08225 | 3.45e6 | 3.90e6 | 3.94e6 |
| CG14780 | DRSC18566 | 3.55e6 | 4.16e6 | 3.91e6 |
| CG17803 | DRSC15275 | 3.74e6 | 4.10e6 | 4.23e6 |
| CG17803 | DRSC22811 | 3.21e6 | 3.66e6 | 3.87e6 |
| kl-2 | DRSC21136 | 3.50e6 | 4.04e6 | 3.92e6 |
| CG4645 | DRSC19907 | 3.82e6 | 4.24e6 | 4.05e6 |
| Usp16-45 | DRSC18352 | 3.63e6 | 4.17e6 | 4.14e6 |
| Act88F | DRSC14105 | 3.38e6 | 3.84e6 | 3.81e6 |
| CG8360 | DRSC03085 | 3.73e6 | 3.84e6 | 3.89e6 |
| CG12998 | DRSC19518 | 3.47e6 | 3.70e6 | 4.15e6 |
| CG14104 | DRSC10106 | 3.86e6 | 4.24e6 | 4.28e6 |
| CG2201 | DRSC03721 | 3.49e6 | 3.76e6 | 4.00e6 |
| SKIP | DRSC14713 | 3.67e6 | 4.21e6 | 4.10e6 |
| SKIP | DRSC14714 | 3.60e6 | 3.98e6 | 4.19e6 |
| SKIP | DRSC15864 | 3.68e6 | 4.16e6 | 4.18e6 |
| SKIP | DRSC16195 | 3.63e6 | 4.04e6 | 4.16e6 |
| SKIP | DRSC16196 | 3.62e6 | 4.18e6 | 4.24e6 |
